The values that follow come from article doi:10.1101/2020.04.22.056051.

Protein sequences, listed by entry. Tags and fused reporters are not part of them.
UniProt Q9VCA8: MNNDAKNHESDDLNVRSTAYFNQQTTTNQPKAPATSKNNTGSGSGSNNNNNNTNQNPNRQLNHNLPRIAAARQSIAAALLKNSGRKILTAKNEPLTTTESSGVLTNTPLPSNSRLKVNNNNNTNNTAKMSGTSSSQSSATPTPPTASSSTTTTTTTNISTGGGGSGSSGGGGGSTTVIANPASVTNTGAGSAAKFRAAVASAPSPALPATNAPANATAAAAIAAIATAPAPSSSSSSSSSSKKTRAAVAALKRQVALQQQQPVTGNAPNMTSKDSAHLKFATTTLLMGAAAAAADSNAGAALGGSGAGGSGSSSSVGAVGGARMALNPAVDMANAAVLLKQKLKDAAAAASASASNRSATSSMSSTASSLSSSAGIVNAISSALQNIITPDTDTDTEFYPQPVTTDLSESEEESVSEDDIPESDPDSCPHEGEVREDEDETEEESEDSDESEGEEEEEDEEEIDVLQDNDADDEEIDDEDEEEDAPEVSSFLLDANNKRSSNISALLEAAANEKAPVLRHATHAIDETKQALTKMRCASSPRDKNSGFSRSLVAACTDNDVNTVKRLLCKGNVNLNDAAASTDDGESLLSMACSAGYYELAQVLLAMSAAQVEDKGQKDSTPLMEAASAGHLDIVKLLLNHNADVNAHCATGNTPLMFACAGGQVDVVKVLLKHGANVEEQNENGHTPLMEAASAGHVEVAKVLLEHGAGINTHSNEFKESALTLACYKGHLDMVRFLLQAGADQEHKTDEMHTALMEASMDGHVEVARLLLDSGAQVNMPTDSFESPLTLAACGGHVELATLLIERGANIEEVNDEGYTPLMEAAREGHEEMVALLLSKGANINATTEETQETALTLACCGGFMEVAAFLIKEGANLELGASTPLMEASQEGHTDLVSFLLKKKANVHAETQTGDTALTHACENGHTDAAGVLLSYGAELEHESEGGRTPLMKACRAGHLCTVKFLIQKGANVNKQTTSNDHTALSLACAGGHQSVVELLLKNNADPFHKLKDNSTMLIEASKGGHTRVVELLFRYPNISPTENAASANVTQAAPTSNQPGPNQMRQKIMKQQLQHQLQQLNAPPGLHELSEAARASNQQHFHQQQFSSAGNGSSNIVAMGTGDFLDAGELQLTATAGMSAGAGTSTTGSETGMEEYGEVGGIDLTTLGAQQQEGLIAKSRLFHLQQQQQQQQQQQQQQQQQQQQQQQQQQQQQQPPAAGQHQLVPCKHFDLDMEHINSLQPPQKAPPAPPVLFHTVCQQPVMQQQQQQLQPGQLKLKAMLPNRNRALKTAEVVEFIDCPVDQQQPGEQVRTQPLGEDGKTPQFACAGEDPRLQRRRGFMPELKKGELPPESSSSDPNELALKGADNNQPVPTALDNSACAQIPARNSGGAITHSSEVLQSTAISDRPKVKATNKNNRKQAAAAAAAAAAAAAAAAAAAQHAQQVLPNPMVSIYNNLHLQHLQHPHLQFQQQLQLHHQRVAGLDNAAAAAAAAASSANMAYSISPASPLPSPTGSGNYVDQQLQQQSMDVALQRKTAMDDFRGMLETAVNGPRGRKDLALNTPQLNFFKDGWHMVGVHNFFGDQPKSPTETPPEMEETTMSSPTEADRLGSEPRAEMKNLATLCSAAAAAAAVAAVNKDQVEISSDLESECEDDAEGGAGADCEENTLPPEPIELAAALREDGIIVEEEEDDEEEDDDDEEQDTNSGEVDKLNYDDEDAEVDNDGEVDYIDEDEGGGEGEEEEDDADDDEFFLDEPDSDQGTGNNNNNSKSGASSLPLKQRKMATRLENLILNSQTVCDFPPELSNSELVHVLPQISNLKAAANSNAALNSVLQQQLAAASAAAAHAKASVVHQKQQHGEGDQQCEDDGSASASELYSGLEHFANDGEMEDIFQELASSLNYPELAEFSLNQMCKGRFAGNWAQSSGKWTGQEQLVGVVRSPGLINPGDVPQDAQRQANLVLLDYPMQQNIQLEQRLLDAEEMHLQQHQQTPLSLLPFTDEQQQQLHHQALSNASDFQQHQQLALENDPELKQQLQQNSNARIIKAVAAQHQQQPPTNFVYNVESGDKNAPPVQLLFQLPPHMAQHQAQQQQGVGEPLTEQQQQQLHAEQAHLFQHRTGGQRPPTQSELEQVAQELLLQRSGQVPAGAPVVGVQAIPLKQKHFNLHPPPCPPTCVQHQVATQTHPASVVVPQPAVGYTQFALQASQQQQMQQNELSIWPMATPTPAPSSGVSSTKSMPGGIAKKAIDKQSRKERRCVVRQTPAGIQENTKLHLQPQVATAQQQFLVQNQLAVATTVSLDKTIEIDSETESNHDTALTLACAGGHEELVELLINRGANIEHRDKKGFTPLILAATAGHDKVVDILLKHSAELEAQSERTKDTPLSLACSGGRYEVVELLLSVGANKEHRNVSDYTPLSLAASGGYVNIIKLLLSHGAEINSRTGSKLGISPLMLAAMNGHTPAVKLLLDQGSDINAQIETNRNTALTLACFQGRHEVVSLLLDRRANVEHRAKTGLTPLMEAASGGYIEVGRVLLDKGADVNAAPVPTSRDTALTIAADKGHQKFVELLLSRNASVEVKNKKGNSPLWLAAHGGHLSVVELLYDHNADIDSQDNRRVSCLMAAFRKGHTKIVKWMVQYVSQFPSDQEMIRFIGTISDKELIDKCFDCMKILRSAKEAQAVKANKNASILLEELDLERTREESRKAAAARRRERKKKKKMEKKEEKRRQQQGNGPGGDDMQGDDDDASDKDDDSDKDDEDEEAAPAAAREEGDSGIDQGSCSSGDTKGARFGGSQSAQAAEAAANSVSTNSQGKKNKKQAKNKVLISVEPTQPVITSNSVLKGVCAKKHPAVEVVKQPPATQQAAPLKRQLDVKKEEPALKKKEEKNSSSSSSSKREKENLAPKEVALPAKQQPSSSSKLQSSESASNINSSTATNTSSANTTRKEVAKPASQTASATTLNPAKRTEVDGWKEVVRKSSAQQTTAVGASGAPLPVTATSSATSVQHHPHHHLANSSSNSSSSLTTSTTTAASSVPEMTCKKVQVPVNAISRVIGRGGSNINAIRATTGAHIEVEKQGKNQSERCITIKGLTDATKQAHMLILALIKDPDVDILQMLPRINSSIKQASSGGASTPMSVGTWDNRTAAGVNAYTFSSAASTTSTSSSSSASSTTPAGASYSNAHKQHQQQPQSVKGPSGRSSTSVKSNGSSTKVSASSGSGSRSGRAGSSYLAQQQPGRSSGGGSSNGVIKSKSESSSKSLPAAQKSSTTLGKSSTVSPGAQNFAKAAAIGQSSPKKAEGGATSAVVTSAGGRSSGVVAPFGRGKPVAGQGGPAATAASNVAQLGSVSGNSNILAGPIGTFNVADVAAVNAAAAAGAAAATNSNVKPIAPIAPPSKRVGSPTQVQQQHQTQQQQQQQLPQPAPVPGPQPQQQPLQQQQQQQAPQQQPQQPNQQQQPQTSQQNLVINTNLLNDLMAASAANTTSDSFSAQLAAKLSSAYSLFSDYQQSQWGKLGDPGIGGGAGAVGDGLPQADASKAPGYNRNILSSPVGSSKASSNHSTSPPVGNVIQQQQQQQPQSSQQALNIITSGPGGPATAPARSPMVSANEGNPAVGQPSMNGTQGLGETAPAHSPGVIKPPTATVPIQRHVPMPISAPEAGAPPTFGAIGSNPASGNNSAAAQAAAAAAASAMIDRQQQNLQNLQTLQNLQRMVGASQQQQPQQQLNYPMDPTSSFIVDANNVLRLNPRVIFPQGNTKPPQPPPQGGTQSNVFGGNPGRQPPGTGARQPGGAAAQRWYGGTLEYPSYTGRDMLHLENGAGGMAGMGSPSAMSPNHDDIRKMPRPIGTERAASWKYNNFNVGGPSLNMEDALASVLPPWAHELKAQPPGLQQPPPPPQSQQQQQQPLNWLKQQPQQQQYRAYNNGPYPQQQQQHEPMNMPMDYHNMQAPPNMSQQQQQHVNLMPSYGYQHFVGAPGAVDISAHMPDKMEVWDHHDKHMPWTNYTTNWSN

No constants are given. Whether binding was seen depends on the method and setting. In cells and extracts the contact can be indirect. Here binding means that the protein was enriched with, or labelled near, the bait; the list need not be complete.

The experiment concerns the target TurboID-Mask (Drosophila) (UniProt Q9VCA8). Briefly: proximity labelling.

B1: Jupiter (protein, UniProt Q9I7K0 1-208)
chain: MAAYAAFKHVELYNVGKAKKRVLRPPGGGSSDIFGSEMPQTPRNVKNRMASNIFAAEKDNGVKNNVRQGAHRFYFIGDAPRRGQKTVDSHSRLFGEPTRPITPGKNHMKSSIPFGQNTEAVAAQKLLTTNGHYNGKSGSVSSASSSVSSSTENLKMNSGSRSEGNPVTGEGYKVVANEYSQRQESSNGGTPVINKNRIPPGGYSSGLW
modifications: biotinylated in vivo by TurboID-Mask (sites not given)
B1: the binding entry was “binds”.
